Measured values as given in patent US20090281166A1, “Treatment of Cancer by Inhibition of HSP27” (THE UNIVERSITY OF BRITISH COLUMBIA, priority 2008, published 2009).
No constants are given. Whether binding was seen depends on the method and setting. In cells and extracts the contact can be indirect. Some binding calls cover weakened binding; strength is not graded here.

Chains of the proteins cited; added tags and fusions are not shown.
UniProt P31749: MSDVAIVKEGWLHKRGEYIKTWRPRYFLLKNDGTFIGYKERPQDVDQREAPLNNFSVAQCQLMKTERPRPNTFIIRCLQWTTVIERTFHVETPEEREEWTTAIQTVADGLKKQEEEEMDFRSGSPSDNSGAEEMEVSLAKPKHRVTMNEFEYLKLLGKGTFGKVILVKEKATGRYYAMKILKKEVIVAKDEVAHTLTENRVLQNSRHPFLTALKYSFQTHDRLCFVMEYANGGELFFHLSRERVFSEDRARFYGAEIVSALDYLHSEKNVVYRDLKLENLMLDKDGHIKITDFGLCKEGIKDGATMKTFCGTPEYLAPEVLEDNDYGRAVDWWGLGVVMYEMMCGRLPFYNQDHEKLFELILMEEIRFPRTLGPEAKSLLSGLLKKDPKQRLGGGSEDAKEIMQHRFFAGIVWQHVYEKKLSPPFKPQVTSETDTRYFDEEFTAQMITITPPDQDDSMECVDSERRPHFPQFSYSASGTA
UniProt P04792: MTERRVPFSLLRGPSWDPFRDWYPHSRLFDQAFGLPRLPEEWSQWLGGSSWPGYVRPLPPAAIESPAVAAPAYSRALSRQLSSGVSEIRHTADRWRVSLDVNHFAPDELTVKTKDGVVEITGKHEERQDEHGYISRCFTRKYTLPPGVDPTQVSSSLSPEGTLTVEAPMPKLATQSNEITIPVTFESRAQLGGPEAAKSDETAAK

Target: Akt (UniProt P31749)
Test: co-immunoprecipitation from LNCaP cell lysates with Akt antibody, Western blot with Hsp27 antibody

**Q.** Which binding does the source give for “heat shock protein 27 (Hsp27) (from UniProt P04792 1-205)” here?
**A.** binds
